Results are given in words; binding and its absence hold for the method and conditions named.
Target: human SH3BGRL (human), O75368
Assay: AUC
Conditions: remark: other sources report otherwise

B1: human SH3BGRL, O75368 1-114 (protein)
chain: MVIRVYIASSSGSTAIKKKQQDVLGFLEANKIGFEEKDIAANEENRKWMRENVPENSRPATGYPLPPQIFNESQYRGDYDAFFEARENNAVYAFLGLTAPPGSKEAEVQAKQQA
binding: no binding

— paper doi:10.1101/2025.03.25.645244
